The supplement of paper PMC10849652
Some of the results follow. Residues, ends and D or L forms follow the SMILES beside them. *: point of attachment. Cbz = O=C(OCc1ccccc1)*

The chains behind the UniProt entries cited, without tags or fusion partners. Where a name states a change or a piece, a line headed by the entry shows the natural chain unless it says otherwise.
UniProt Q8TF05: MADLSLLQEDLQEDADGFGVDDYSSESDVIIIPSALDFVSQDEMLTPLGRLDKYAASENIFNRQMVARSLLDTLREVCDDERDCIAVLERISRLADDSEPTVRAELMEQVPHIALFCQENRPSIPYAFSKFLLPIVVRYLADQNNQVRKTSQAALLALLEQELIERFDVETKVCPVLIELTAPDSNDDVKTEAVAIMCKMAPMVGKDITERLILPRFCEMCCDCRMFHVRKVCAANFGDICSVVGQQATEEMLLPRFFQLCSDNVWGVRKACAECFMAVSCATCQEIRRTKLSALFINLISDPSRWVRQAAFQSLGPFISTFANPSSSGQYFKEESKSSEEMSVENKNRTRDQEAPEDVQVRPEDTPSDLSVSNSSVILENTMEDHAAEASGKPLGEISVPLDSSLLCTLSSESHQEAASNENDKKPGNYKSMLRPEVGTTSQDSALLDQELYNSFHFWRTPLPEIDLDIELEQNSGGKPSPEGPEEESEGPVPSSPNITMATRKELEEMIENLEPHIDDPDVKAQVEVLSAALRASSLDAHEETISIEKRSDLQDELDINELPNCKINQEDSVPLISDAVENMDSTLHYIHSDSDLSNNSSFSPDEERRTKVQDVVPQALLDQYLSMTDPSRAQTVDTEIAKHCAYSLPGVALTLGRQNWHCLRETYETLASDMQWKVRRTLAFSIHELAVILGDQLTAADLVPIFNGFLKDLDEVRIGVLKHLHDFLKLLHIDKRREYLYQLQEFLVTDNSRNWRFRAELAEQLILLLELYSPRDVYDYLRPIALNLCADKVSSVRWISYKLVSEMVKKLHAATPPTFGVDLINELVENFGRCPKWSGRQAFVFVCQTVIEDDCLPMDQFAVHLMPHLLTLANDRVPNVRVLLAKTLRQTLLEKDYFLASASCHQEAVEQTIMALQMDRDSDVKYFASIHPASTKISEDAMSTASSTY
UniProt Q8WWY3: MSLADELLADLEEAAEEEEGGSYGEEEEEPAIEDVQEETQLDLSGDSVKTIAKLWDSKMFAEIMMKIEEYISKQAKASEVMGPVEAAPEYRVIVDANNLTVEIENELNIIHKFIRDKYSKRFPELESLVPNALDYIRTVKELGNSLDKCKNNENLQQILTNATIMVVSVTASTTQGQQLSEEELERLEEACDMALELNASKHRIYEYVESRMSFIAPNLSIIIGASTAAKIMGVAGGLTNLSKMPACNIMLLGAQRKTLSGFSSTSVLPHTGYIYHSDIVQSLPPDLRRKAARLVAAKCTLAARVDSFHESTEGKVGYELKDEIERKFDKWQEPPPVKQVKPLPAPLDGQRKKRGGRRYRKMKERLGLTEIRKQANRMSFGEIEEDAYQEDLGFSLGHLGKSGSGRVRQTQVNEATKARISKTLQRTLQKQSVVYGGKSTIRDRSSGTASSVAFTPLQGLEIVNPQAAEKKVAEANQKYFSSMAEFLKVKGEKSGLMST
UniProt P05771, whole entry, looked up: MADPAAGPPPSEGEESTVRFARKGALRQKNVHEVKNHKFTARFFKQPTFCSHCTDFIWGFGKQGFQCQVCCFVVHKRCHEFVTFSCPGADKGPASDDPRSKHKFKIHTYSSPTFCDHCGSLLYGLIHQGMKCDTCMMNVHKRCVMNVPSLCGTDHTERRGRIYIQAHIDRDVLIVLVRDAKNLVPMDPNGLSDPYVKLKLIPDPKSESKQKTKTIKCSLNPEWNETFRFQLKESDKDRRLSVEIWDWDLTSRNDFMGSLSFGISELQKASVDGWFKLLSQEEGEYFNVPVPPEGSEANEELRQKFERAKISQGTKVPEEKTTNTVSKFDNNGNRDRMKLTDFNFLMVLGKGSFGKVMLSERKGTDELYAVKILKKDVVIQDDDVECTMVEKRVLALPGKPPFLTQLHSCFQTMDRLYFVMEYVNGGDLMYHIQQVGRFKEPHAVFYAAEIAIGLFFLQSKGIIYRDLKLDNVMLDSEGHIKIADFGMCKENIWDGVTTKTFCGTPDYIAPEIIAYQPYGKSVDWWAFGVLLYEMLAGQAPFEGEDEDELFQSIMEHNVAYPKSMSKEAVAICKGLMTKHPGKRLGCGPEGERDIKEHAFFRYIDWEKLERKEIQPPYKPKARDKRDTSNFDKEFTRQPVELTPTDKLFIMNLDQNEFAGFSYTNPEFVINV
UniProt Q8NAV1: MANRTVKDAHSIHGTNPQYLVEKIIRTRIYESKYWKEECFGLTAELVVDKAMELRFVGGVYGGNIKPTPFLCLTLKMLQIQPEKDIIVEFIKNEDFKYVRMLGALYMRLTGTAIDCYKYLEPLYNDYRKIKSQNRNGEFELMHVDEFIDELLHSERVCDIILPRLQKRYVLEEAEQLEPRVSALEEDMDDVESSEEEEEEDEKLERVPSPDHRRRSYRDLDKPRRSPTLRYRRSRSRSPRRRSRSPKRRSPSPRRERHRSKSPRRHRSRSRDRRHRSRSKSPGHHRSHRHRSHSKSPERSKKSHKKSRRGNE
UniProt Q13362, whole entry, looked up: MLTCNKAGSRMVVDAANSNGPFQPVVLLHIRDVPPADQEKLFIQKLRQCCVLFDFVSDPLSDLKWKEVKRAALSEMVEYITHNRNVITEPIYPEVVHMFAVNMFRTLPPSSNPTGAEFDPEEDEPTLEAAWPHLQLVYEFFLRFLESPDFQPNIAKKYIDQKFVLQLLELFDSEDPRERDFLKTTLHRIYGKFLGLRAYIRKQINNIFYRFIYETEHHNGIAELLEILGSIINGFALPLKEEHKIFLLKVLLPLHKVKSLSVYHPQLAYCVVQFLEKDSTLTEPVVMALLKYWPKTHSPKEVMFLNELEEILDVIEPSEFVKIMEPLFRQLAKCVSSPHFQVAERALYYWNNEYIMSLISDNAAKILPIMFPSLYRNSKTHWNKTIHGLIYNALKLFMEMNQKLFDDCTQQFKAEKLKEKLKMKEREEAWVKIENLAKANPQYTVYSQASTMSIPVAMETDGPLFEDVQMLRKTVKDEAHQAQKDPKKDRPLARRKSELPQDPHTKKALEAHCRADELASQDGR
UniProt P42785: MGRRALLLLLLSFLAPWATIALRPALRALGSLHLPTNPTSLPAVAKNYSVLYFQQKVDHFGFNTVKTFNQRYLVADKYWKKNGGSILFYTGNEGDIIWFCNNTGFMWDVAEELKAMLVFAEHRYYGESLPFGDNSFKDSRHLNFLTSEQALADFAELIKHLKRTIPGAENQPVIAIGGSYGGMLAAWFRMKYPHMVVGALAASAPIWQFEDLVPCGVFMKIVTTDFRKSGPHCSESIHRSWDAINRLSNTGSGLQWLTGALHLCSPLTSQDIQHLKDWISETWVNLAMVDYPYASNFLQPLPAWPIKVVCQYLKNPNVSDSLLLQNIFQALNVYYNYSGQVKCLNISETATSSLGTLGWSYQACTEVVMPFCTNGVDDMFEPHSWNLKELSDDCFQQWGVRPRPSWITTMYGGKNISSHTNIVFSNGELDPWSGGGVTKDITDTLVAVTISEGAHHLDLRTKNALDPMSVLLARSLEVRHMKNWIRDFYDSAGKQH
UniProt O60256: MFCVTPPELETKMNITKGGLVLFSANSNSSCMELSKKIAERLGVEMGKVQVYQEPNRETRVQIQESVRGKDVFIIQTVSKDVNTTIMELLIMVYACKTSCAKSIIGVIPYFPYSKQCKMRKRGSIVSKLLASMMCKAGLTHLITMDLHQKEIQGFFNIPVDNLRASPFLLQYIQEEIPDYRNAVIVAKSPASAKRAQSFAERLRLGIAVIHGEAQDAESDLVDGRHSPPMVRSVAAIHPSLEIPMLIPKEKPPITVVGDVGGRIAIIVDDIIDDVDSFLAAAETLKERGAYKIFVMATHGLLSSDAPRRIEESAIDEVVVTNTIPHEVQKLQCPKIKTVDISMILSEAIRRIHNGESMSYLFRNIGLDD

How the values were obtained:
Test in all cases: log2 fold change, soluble protein after heating vs DMSO (PISA); higher = thermal stabilisation; K562 cells, 10 uM, 30 min; active = over 0.2 and 3.5 SD of the protein, either way, in both replicates (recomputed)
erlotinib = compound: C#Cc1cccc(Nc2ncnc3cc(OCCOC)c(OCCOC)cc23)c1 [erlotinib]
In short: (§1)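 K562 cells (2×10^6 cells/mL) were treated with 10 μM compound for 30 min, and aliquots were heated for 3 min over 48°C-58°C. Pooled aliquots were extracted in PBS with 0.5% NP-40 at 4°C, and the supernatant after 21,000xg for 90 min was measured by TMTpro 16plex LC-MS/MS with channel sums equalised. Reported thermal stability, relative to control samples and from duplicates, is a log2 fold change.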

[1] = compound: C/C(=N\NC(=O)C1=CC(=CC=C1)S(=O)(=O)N2CCOCC2)/C3=C(C=CC(=C3)Cl)O
In short: as §1

[2] = compound: C1=CC(=C(C=C1Cl)C2=NC3=NC=CN=C3C(=N2)NC4=CC=NC=C4)F
In short: as §1

[3] = compound: C1=CC(=CC=C1C2=NC3=C(N2)C=C(C=C3)C(=O)N)OC4=CC=C(C=C4)Cl
In short: as §1

[4] = compound: C1=CC2=C(C=CC(=C2)/C=C\3/C(=O)NC(=NCC4=CC=CS4)S3)N=C1
In short: as §1

[5] = compound: C1=CC2=NC=CN=C2C=C1/C=C/3\C(=O)NC(=O)S3
In short: as §1

[6] = compound: C1=CC=C(C=C1)C2=NC(=C(N2)C3=CC=NC=C3)C4=CC(=C(C=C4)Cl)O
In short: as §1

[7] = compound: C1=CC=C2C(=C1)C3=NNC4=CC=CC(=C43)C2=O
In short: as §1

[8] = compound: C1CCN(C1)C(=O)NC2=CC=CC(=C2)NC3=NC=C(C(=N3)NCCC4=CN=CN4)Br
In short: as §1

[9] = compound: C1CN(CCC1(CC2=CC=C(C=C2)Cl)N)C3=NC=NC4=C3C=CN4
In short: as §1

IRAK-1-4 Inhibitor I = compound: C1COCCN1CCN2C3=CC=CC=C3N=C2NC(=O)C4=CC(=CC=C4)[N+](=O)[O-] [IRAK-1-4 Inhibitor I]
In short: as §1

ibrutinib = compound: C=CC(=O)N1CCC[C@@H](n2nc(-c3ccc(Oc4ccccc4)cc3)c3c(N)ncnc32)C1 [ibrutinib]
In short: as §1

[10] = compound: CC(=O)c1cnc2ccc(-c3cc(Cl)c(O)c(Cl)c3)nc2c1N[C@H]1CC[C@H](CN(C)C)CC1
In short: as §1

ralimetinib = compound: CC(C)(C)Cn1c(N)nc2ccc(-c3[nH]c(C(C)(C)C)nc3-c3ccc(F)cc3)nc21 [ralimetinib]
In short: as §1

[11] = compound: CC(C)(O)CC(=O)NCCn1ccc2ncnc(Nc3ccc(Oc4cccc(C(F)(F)F)c4)c(Cl)c3)c21
In short: as §1

[12] = compound: CC(C)C1=C2N=C(C=C(N2N=C1)NCC3=CC=CC=C3)NCCCCCCN
In short: as §1

[13] = compound: CC(C)C[C@@H](C=O)NC(=O)[C@H](CC(C)C)NC(=O)[C@H](CC(C)C)NC(=O)OCc1ccccc1
In short: as §1

pinometostat = compound: CC(C)N(C[C@H]1O[C@@H](n2cnc3c(N)ncnc32)[C@H](O)[C@@H]1O)[C@H]1C[C@@H](CCc2nc3cc(C(C)(C)C)ccc3[nH]2)C1 [pinometostat]
In short: as §1

[14] = compound: CC1=C(C(CC(=O)N1)C2=CC=C(C=C2)C(F)(F)F)C(=O)NC3=C(C=C4C(=C3)C=NN4)F
In short: as §1

[15] = compound: CC1=C(C2=C(C=C1)C(=O)C3=CC=CC=C3N2CCCN)C
In short: as §1

| Target | log2 fold change (erlotinib) | log2 fold change [1] | log2 fold change [2] | log2 fold change [3] | log2 fold change [4] | log2 fold change [5] | log2 fold change [6] | log2 fold change [7] | log2 fold change [8] | log2 fold change [9] | log2 fold change (IRAK-1-4 Inhibitor I) | log2 fold change (ibrutinib) | log2 fold change [10] | log2 fold change (ralimetinib) | log2 fold change [11] | log2 fold change [12] | log2 fold change [13] | log2 fold change (pinometostat) | log2 fold change [14] | log2 fold change [15] |
| --- | --- | --- | --- | --- | --- | --- | --- | --- | --- | --- | --- | --- | --- | --- | --- | --- | --- | --- | --- | --- |
| PPP4R1 (UniProt Q8TF05) | inactive: -0.007 | inactive: -0.019 | inactive: 0.062 | inactive: 0.016 | inactive: 0.039 | inactive: 0.064 | inactive: 0.062 | inactive: 0.007 | inactive: -0.001 | inactive: 0.01 | inactive: -0.001 | inactive: -0.002 | inactive: 0.107 | inactive: -0.007 | inactive: -0.085 | inactive: -0.06 | inactive: -0.046 | inactive: 0.018 | inactive: -0.012 | inactive: 0.004 |
| PRPF31 (UniProt Q8WWY3) | inactive: 0.105 | inactive: 0.194 | inactive: 0.05 | inactive: 0 | inactive: 0.217 | inactive: 0 | inactive: 0.027 | inactive: 0.076 | inactive: -0.067 | inactive: 0.129 | inactive: -0.066 | inactive: -0.028 | inactive: -0.3 | inactive: 0.069 | inactive: -0.144 | inactive: -0.387 | inactive: 0.004 | inactive: 0 |  | inactive: -0.271 |
| PRKCB isoform 2 (UniProt P05771) | inactive: 0.038 | inactive: 0.031 | inactive: 0.038 | inactive: 0 | inactive: 0.086 | inactive: 0.004 | inactive: 0.021 | inactive: 0.037 | inactive: 0 | inactive: -0.067 | inactive: 0.027 | inactive: -0.009 | active: -0.373 | inactive: 0.022 | inactive: -0.057 | inactive: -0.049 | inactive: 0.028 | inactive: 0.014 |  | inactive: -0.025 |
| PRPF38A (UniProt Q8NAV1) | inactive: -0.032 | inactive: 0.035 | inactive: -0.01 | inactive: 0.049 | inactive: 0 | inactive: -0.046 | inactive: 0 | inactive: -0.08 | inactive: 0.008 | inactive: 0.018 | inactive: 0.011 | inactive: -0.051 | active: -0.237 | inactive: 0.03 | inactive: 0.012 | inactive: -0.029 | inactive: 0.005 | inactive: 0.027 |  | inactive: -0.014 |
| PPP2R5C isoform 4 (UniProt Q13362) | inactive: 0.036 | inactive: -0.022 | inactive: 0.218 | inactive: -0.025 | inactive: -0.039 | inactive: -0.004 | inactive: -0.029 | inactive: -0.015 | inactive: 0 | inactive: 0.019 | inactive: 0.027 | inactive: -0.051 | inactive: 0.019 | inactive: -0.15 | inactive: -0.07 | inactive: -0.02 | inactive: 0.034 | inactive: 0.043 |  | inactive: -0.032 |
| PRCP (UniProt P42785) | inactive: -0.028 | inactive: 0.013 | inactive: 0.049 | inactive: -0.025 | inactive: -0.052 | inactive: 0.014 | inactive: -0.019 | inactive: -0.001 | inactive: 0.038 | inactive: 0.052 | inactive: 0.04 | inactive: 0.012 | inactive: 0.014 | inactive: -0.01 | inactive: -0.072 | inactive: -0.077 | inactive: -0.025 | inactive: -0.006 |  | inactive: -0.101 |
| PRPSAP2 (UniProt O60256) | inactive: 0.053 | inactive: 0.033 | inactive: -0.017 | inactive: -0.028 | inactive: -0.06 | inactive: 0.017 | inactive: -0.006 | inactive: 0.029 | inactive: -0.02 | inactive: 0.009 | inactive: 0.02 | inactive: 0.008 | inactive: 0.074 | inactive: -0.013 | inactive: 0.003 | inactive: 0.035 | inactive: -0.017 | inactive: -0.003 |  | inactive: 0.063 |
| PRKACB isoform 2 (UniProt P22694) | inactive: 0.013 | inactive: 0.049 | inactive: -0.065 | inactive: 0.072 | inactive: 0.007 | inactive: 0.008 | inactive: -0.034 | inactive: -0.096 | inactive: -0.095 | inactive: 0.007 | inactive: -0.007 | inactive: -0.032 | inactive: -0.067 | inactive: -0.035 | inactive: -0.011 | inactive: -0.012 | inactive: 0.054 | inactive: -0.008 |  | inactive: 0.044 |
